The text below walks through data of the supplement of paper PMC12889115.

Molecules are shown by their SMILES. This is one part of the list. These are raw signals, not scaled to a control.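 In the initial screen, polymyxin B was used at a concentration that permeabilizes Salmonella's outer membrane but not its inner membrane. Maximum growth was set by DMSO wells with or without polymyxin B. Since plates varied, data were ranked per plate, and compounds giving the lowest OD600 advanced as hits.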

The test system of this assay is Salmonella enterica serovar Typhimurium SL1344. Put plainly: bacterial growth OD600 after 18 h with compound and polymyxin B; higher = more bacterial growth (less inhibition). Conditions: 50 µM, Mueller-Hinton broth.

With `O=C(NC1CC(=O)N(Cc2ccccc2C(F)(F)F)C1)c1ccccn1` (stereo unspecified), the “bacterial growth OD600” value (polymyxin B 1 µg/mL) was 0.909.

Consider `CCN(CC1CCCN(CCc2cccc(F)c2)C1)C(=O)CCc1ccccn1` (stereo unspecified), for which the “bacterial growth OD600” value (polymyxin B 1 µg/mL) is 1.03.

Turning to `CC(C)N1CCC(C(=O)N2CCCC(CCc3ccc(F)c(F)c3)C2)CC1` (stereo unspecified), for the setting “polymyxin B 0.75 µg/mL”, the “bacterial growth OD600” value was 0.001.

With `CCc1ccc(CN(C)C(=O)C2CCC(=O)N(CCN3CCOCC3)C2)nc1` (stereo unspecified), for the setting “polymyxin B 1 µg/mL”, the “bacterial growth OD600” value worked out at 0.948.

Turning to `COc1cccc(CN2CCN(Cc3ccccc3OC)CC2CCO)c1` (stereo unspecified), for the setting “polymyxin B 1 µg/mL”, the “bacterial growth OD600” value is 0.886.

With `CCOC(=O)CC1CCCCN1Cc1nc(-c2cc(OC)ccc2F)oc1C` (stereo unspecified), the “bacterial growth OD600” value (polymyxin B 1 µg/mL) stood at 0.686.

Take `O=C(NC1CC(=O)N(Cc2cccc3ccccc23)C1)c1ccoc1` (stereo unspecified): the “bacterial growth OD600” value (polymyxin B 1 µg/mL) turned out to be 0.891.

For `COc1ccc(CCCNC(=O)c2ccc(N3CCCC(O)C3)nc2)cc1` (stereo unspecified), the “bacterial growth OD600” value (polymyxin B 1 µg/mL) is 0.978.

Consider `CC1CCN(Cc2nnnn2CC(=O)NCc2scnc2-c2ccccc2)CC1`, for which the “bacterial growth OD600” value (polymyxin B 1 µg/mL) was found to be 0.912.

On to `Cc1nc(CNC(=O)Cn2nnnc2CN2CCC(C)CC2)sc1C`, for which, under “polymyxin B 0.75 µg/mL”, the “bacterial growth OD600” value was found to be 0.704.

For `Cn1ccnc1CNC(=O)c1csc2nc(-c3ccccc3Cl)cn12`, the “bacterial growth OD600” value (polymyxin B 1 µg/mL) was found to be 1.14.

As to `CC(C)CCCC1CN(S(=O)(=O)N2CCOCC2)CCO1` (stereo unspecified), the “bacterial growth OD600” value (polymyxin B 0.75 µg/mL) amounted to 0.785.

Take `COc1cccc(CCC2CCCN(C(=O)c3ccc(C)nc3)C2)c1` (stereo unspecified): the “bacterial growth OD600” value (polymyxin B 0.75 µg/mL) turned out to be 0.689.

Turning to `COCCN1CC(CNc2nncc(-c3ccc(Cl)cc3)n2)CC1=O` (stereo unspecified), the “bacterial growth OD600” value (polymyxin B 1 µg/mL) turned out to be 0.919.

Turning to `C[C@@H]1CN(Cc2nc(NCc3cccs3)c3ccccc3n2)C[C@H](C)O1`, the “bacterial growth OD600” value (polymyxin B 0.75 µg/mL) was 0.756.

For `COc1cccc(CN2CCCC3(CCN(C(=O)CC(C)C)C3)C2=O)c1OC` (stereo unspecified), for the setting “polymyxin B 1 µg/mL”, the “bacterial growth OD600” value amounted to 0.901.

With `COc1ccc(F)c(CC2(CCC(=O)N(C)CC(O)c3ccccc3)CCC(=O)N2)c1` (stereo unspecified), the “bacterial growth OD600” value (polymyxin B 0.75 µg/mL) is 0.881.

Consider `COc1ccc(OC2CCN(Cc3nc(-c4ccccn4)no3)CC2)cc1`, for which, where the note is “polymyxin B 1 µg/mL”, the “bacterial growth OD600” value was 0.89.

Take `Cn1cc(CNc2ccc(C(=O)N3CCC(CCn4cccn4)CC3)cn2)cn1`: the “bacterial growth OD600” value (polymyxin B 0.75 µg/mL) was determined as 0.803.

For `COCCNC(=O)c1ccc(OC2CCN(Cc3cnn(C(C)C)c3)CC2)c(Cl)c1`, the “bacterial growth OD600” value (polymyxin B 1 µg/mL) came out at 0.973.

With `NC(=O)[C@H](Cc1ccccc1)NC1CCN(c2cccc(NC(=O)CCCc3ccccc3)c2)CC1`, under “polymyxin B 0.75 µg/mL”, the “bacterial growth OD600” value amounted to 0.038.
